Results are given in words; binding and its absence hold for the method and conditions named. Some entries that bind do so weakly or less than the wild type.
B1: NAMPT-scFv2 (scFv)
scFv: MEVQLLESGGGLVQPGGSLRLSCAASGFAFSSYAMSWVRQAPGKGLEWVSNISGRGAKTTYADSVKGRFTISRDNSKNTLYLQMNSLRAEDTAVYYCAKTYLVFDYWGQGTLVTVSSGGGGSGGGGSGGGGSTDIQMTQSPSSLSASVGDRVTITCRASQSISSYLNWYQQKPGKAPKLLIYRASSLQSGVPSRFSGSGSGTDFTLTISSLQPEDFATYYCQQISATPTTFGQGTKVEIKRAAHHHHHH
B2: NAMPT-scFv1 (scFv)
scFv: MEVQLLESGGGLVQPGGSLRLSCAASGFTFSSYAMSWVRQAPGKGLEWVSVINVPGNRTSYADSVKGRFTISRDNSKNTLYLQMNSLRAEDTAVYYCAKKTRRFDYWGQGTLVTVSSGGGGSGGGGSGGGGSTDIQMTQSPSSLSASVGDRVTITCRASQSISSYLNWYQQKPGKAPKLLIYGASVLQSGVPSRFSGSGSGTDFTLTISSLQPEDFATYYCQQRVRSPATFGQGTKVEIKRHHHHHH

The chains behind the UniProt entries cited, without tags or fusion partners.
UniProt Q99KQ4: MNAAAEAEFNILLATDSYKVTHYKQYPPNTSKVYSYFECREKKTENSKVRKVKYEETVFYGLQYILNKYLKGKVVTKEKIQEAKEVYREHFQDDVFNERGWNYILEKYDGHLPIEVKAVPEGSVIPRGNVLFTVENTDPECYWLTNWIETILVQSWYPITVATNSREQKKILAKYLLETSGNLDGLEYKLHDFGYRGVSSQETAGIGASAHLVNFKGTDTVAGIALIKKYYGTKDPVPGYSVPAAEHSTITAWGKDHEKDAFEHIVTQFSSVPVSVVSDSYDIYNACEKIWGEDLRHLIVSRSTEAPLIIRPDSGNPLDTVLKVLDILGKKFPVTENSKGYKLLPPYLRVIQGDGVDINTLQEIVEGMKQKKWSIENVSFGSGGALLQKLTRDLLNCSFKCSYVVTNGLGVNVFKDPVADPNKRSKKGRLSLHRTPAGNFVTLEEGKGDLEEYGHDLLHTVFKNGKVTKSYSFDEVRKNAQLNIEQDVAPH

Columns and labels:
[1] = biological target: purified recombinant mouse NAMPT protein (mouse) (UniProt Q99KQ4); assay: phage display library screen against purified recombinant NAMPT
[2] = biological target: purified recombinant mouse NAMPT protein (mouse) (UniProt Q99KQ4); assay: phage display library screen against purified recombinant mouse NAMPT

Binder | binding [1] | binding [2]
B1 | binds | binds
B2 | binds | binds

Source: US20190023809A1, “ANTI-NICOTINAMIDE PHOSPHORIBOSYLTRANSFERASE ANTIBODY GENES AND METHODS OF USE THEREOF” (The Children's Mercy Hospital, priority 2015, published 2019)
